No constants are given. Whether binding was seen depends on the method and setting. Some binding calls cover weakened binding; strength is not graded here.
How the values were obtained:
[1] = biological target: hepcidin-specific lipocalin mutein of SEQ ID NO: 10; assay: enzyme-linked fluorescence competition assay, mutein coated on plate, competitor hepcidin-C-Bio
[2] = biological target: hepcidin-specific lipocalin mutein of SEQ ID NO: 10; assay: ECLA competition, mutein coated on MSD plate, competitor Sulfo-Tag labeled control hepcidin
[3] = biological target: hepcidin-specific lipocalin mutein of SEQ ID NO: 10; assay: enzyme-linked absorption competition assay, FIG. 3 legend
[4] = biological target: hepcidin-specific lipocalin mutein of SEQ ID NO: 10; assay: enzyme-linked fluorescence competition assay, FIG. 2 legend
[5] = biological target: hepcidin-specific lipocalin mutein of SEQ ID NO: 10; assay: enzyme-linked absorption (450 nm) competition assay, mutein coated on plate, competitor hepcidin-C-Bio (0.3 nM), Extravidin-HRP detection
[6] = biological target: hepcidin-specific lipocalin mutein of SEQ ID NO: 10; assay: ECLA competition, mutein coated on MSD plate, competitor Sulfo-Tag labeled control hepcidin (0.6 nM)
[7] = biological target: hepcidin-specific lipocalin mutein of SEQ ID NO: 10; assay: enzyme-linked fluorescence competition assay, mutein coated on plate, competitor hepcidin-C-Bio (0.6 nM), Extravidin-HRP detection
[8] = biological target: hepcidin-specific lipocalin mutein of SEQ ID NO: 8; assay: ECLA competition, 0.5 nM mutein in solution, hepcidin-C-Bio on Neutravidin plate, anti-NGAL IgG / anti-rabbit IgG Sulfo-Tag detection
[9] = biological target: hepcidin-specific lipocalin mutein of SEQ ID NO: 10; assay: ECLA competition, FIG. 1 legend
[10] = biological target: hepcidin-specific lipocalin mutein of SEQ ID NO: 8; assay: ECLA competition, mutein coated on MSD plate, competitor hepcidin-C-Bio (0.5 nM), Streptavidin-Sulfo-Tag detection

Measured: binding

DTHFPICIFCCGCCHRSKCGMCCKT (peptide, UniProt P81172 60-84, looked up) [non-control hepcidins in human serum samples]
binds: [1] | [2]

DTHFPICIFCCGCCHRSKCGMCCKT (peptide, UniProt P81172 60-84, looked up, C-terminal biotin) [C-terminal biotinylated control hepcidin (hepcidin-C-Bio, Bachem AG, custom synthesized)]
binds: [3] | [4]

DTHFPICIFCCGCCHRSKCGMCCKT (peptide, UniProt P81172 60-84, looked up) [non-control hepcidin (unlabeled, unconjugated; PeptaNova, Cat. No: 4392-s)]
not listed: [1] | [2]
binds: all other assays above

Reference: patent publication US20150369821A1 (Pieris, published 2015)
